Sequences of proteins named here, by UniProt entry; tags and fusion partners are left off. A change or cut given only in a name is not applied to a line headed by its entry.
UniProt P28593: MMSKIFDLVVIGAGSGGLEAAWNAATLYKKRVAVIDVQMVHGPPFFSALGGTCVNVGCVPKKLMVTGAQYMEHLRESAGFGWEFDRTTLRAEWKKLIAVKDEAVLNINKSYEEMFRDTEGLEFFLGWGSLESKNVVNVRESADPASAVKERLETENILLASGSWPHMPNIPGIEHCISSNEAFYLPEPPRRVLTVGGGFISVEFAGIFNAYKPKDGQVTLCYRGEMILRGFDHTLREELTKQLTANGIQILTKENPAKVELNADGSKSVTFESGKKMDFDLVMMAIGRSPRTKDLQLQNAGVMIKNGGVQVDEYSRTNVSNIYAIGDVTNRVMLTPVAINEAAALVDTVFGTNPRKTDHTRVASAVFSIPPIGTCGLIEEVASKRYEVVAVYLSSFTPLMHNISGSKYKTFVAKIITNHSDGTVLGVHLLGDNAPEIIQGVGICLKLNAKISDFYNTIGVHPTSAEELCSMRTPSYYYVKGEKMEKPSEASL

According to ChEMBL document CHEMBL1155017, “The use of natural product scaffolds as leads in the search for trypanothione reductase inhibitors” (Bioorg Med Chem, 2008):

Target: Trypanothione reductase (Trypanosoma cruzi, UniProt P28593)
Assay: Inhibition of Trypanosoma cruzi recombinant trypanothione reductase

Ki: 7 µM
Structure (SMILES): CN(C)CCCN1c2ccccc2CCc2ccc(Cl)cc21 [CLOMIPRAMINE]
